Data source: PubChem BioAssay AID504808 (Drosophila RNAi Screening Center, 2011)
Purpose: 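Fly genes required to hold E2F transcription in check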 (primary screen). System: Drosophila S2 cells. Reagent: long dsRNA against Drosophila genes. Read-out: 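Dual luciferase plate measurements; E2F-specific signal taken as firefly over Renilla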. Reading the numbers: E2F firefly: higher = more E2F reporter activity; Renilla normaliser: higher = more normaliser reporter signal. Hit rule: 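Called active if the normalised E2F reporter went up by over 50%; the cutoff is arbitrary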.
In all, the deposit lists about 21,000 reagents; shown is a random part of those that have a named target and a result. Of all reagents, 18 (0.084%) are marked active. 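Raw counts without plate normalisation, one of two replicates; the ratio scores behind the calls were not deposited.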 The record does not give: the amount of reagent, the time to read-out.

CG7896 [DRSC16335]
- E2F firefly, rep 1: 1992
- Renilla normaliser, rep 1: 832
- Call: inactive

Ugt35A1 [DRSC16892]
- E2F firefly, rep 1: 70431
- Renilla normaliser, rep 1: 3670
- Call: inactive

CG7387 [DRSC10833]
- E2F firefly, rep 1: 83319
- Renilla normaliser, rep 1: 4301
- Call: inactive

prt [DRSC16894]
- E2F firefly, rep 1: 1.07e5
- Renilla normaliser, rep 1: 5336
- Call: inactive

CG12493 [DRSC08279]
- E2F firefly, rep 1: 94031
- Renilla normaliser, rep 1: 3859
- Call: inactive

CG7376 [DRSC10829]
- E2F firefly, rep 1: 73967
- Renilla normaliser, rep 1: 3413
- Call: inactive

CG31823 [DRSC01887]
- E2F firefly, rep 1: 1.05e5
- Renilla normaliser, rep 1: 4579
- Call: inactive

Nop17l [DRSC06556]
- E2F firefly, rep 1: 2901
- Renilla normaliser, rep 1: 175
- Call: inactive

CG32720 [DRSC17529]
- E2F firefly, rep 1: 81121
- Renilla normaliser, rep 1: 2518
- Call: inactive

CG17985 [DRSC06702]
- E2F firefly, rep 1: 1.41e5
- Renilla normaliser, rep 1: 5263
- Call: inactive

CG15745 (retired record) [DRSC19711]
- E2F firefly, rep 1: 7844
- Renilla normaliser, rep 1: 425
- Call: inactive

PolE4 [DRSC04105]
- E2F firefly, rep 1: 90410
- Renilla normaliser, rep 1: 3790
- Call: inactive

CG4891 [DRSC01936]
- E2F firefly, rep 1: 84247
- Renilla normaliser, rep 1: 3476
- Call: inactive

sau [DRSC00694]
- E2F firefly, rep 1: 91681
- Renilla normaliser, rep 1: 4116
- Call: inactive

CG12316 [DRSC09879]
- E2F firefly, rep 1: 66548
- Renilla normaliser, rep 1: 3945
- Call: inactive

vnd [DRSC17360]
- E2F firefly, rep 1: 83253
- Renilla normaliser, rep 1: 2109
- Call: inactive

vnd [DRSC18849]
- E2F firefly, rep 1: 55733
- Renilla normaliser, rep 1: 3258
- Call: inactive

Rrp4 [DRSC04434]
- E2F firefly, rep 1: 74883
- Renilla normaliser, rep 1: 3754
- Call: inactive

trbd [DRSC16494]
- E2F firefly, rep 1: 58412
- Renilla normaliser, rep 1: 3597
- Call: inactive

CG34429 [DRSC10120]
- E2F firefly, rep 1: 1.39e5
- Renilla normaliser, rep 1: 6700
- Call: inactive

sim [DRSC17054]
- E2F firefly, rep 1: 1.09e5
- Renilla normaliser, rep 1: 5155
- Call: inactive

CG32075 [DRSC10622]
- E2F firefly, rep 1: 82271
- Renilla normaliser, rep 1: 3803
- Call: inactive

CG13996 [DRSC02328]
- E2F firefly, rep 1: 1.41e5
- Renilla normaliser, rep 1: 4518
- Call: inactive

Galk [DRSC10500]
- E2F firefly, rep 1: 69798
- Renilla normaliser, rep 1: 3197
- Call: inactive

Su(fu) [DRSC16871]
- E2F firefly, rep 1: 66172
- Renilla normaliser, rep 1: 3784
- Call: inactive

Mtp [DRSC03216]
- E2F firefly, rep 1: 71258
- Renilla normaliser, rep 1: 3070
- Call: inactive

Eig71Eb [DRSC11149]
- E2F firefly, rep 1: 1.73e5
- Renilla normaliser, rep 1: 7276
- Call: inactive

yuri [DRSC01453]
- E2F firefly, rep 1: 1.28e5
- Renilla normaliser, rep 1: 5522
- Call: inactive

yuri [DRSC01454]
- E2F firefly, rep 1: 1.33e5
- Renilla normaliser, rep 1: 4869
- Call: inactive

yuri [DRSC01943]
- E2F firefly, rep 1: 1.05e5
- Renilla normaliser, rep 1: 4426
- Call: inactive

yuri [DRSC01972]
- E2F firefly, rep 1: 88181
- Renilla normaliser, rep 1: 3821
- Call: inactive

Amt [DRSC16055]
- E2F firefly, rep 1: 1.12e5
- Renilla normaliser, rep 1: 6313
- Call: inactive

CG17191 [DRSC15185]
- E2F firefly, rep 1: 1.20e5
- Renilla normaliser, rep 1: 4635
- Call: inactive

pdm2 [DRSC02496]
- E2F firefly, rep 1: 1.05e5
- Renilla normaliser, rep 1: 4738
- Call: inactive

pdm2 [DRSC02497]
- E2F firefly, rep 1: 1.00e5
- Renilla normaliser, rep 1: 4262
- Call: inactive

pdm2 [DRSC03587]
- E2F firefly, rep 1: 1.24e5
- Renilla normaliser, rep 1: 4812
- Call: inactive
